Experimental data published in the supplement of paper PMC8728848.
The list shows a part of the results.

Tests used:
Assay in all cases: glycan array binding signal (z-score within array); higher = stronger binding
Conditions in all cases: glycan notation: IUPAC condensed, linker removed
[1] = target: Neu5Ac(a2-8)Neu5Ac
Procedure, shortened: (§1)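 Arrays were curated from the Consortium for Functional Glycomics database, 3228 in total, and kept only where the protein sequence was available. Binding is expressed as a within-array Z-score. This score was averaged across arrays of the same protein sequence at different concentrations or buffers and across linkers, and negative values can be read as non-binding.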

[2] = target: Neu5Ac(a2-8)Neu5Ac(a2-3)Gal(b1-3)GalNAc(b1-4)[Neu5Ac(a2-3)]Gal(b1-4)Glc
Procedure, shortened: as §1

[3] = target: Neu5Ac(a2-8)Neu5Ac(a2-3)Gal(b1-3)GalNAc(b1-4)[Neu5Ac(a2-8)Neu5Ac(a2-3)]Gal(b1-4)Glc
Procedure, shortened: as §1

[4] = target: Neu5Ac(a2-8)Neu5Ac(a2-3)Gal(b1-4)Glc
Procedure, shortened: as §1

[5] = target: Neu5Ac(a2-8)Neu5Ac(a2-3)Gal(b1-4)GlcNAc
Procedure, shortened: as §1

[6] = target: Neu5Ac(a2-8)Neu5Ac(a2-3)[Gal(b1-3)GalNAc(b1-4)]Gal(b1-4)Glc
Procedure, shortened: as §1

[7] = target: Neu5Ac(a2-8)Neu5Ac(a2-3)[GalNAc(b1-4)]Gal(b1-4)Glc
Procedure, shortened: as §1

[8] = target: Neu5Ac(a2-8)Neu5Ac(a2-8)Neu5Ac
Procedure, shortened: as §1

[9] = target: Neu5Ac(a2-8)Neu5Ac(a2-8)Neu5Ac(a2-3)Gal(b1-4)Glc
Procedure, shortened: as §1

[10] = target: Neu5Ac(a2-8)Neu5Ac(a2-8)Neu5Ac(a2-3)[Gal(b1-3)GalNAc(b1-4)]Gal(b1-4)Glc
Procedure, shortened: as §1

[11] = target: Neu5Ac(a2-8)Neu5Ac(a2-8)Neu5Ac(a2-3)[GalNAc(b1-4)]Gal(b1-4)Glc
Procedure, shortened: as §1

[12] = target: Neu5Ac(a2-8)Neu5Ac(a2-8)Neu5Ac(a2-8)Neu5Ac(a2-3)[GalNAc(b1-4)]Gal(b1-4)Glc
Procedure, shortened: as §1

[13] = target: Neu5Ac(a2-8)Neu5Gc(a2-3)Gal(b1-4)GlcNAc
Procedure, shortened: as §1

[14] = target: Neu5Ac(b2-6)Gal(b1-4)GlcNAc
Procedure, shortened: as §1

[15] = target: Neu5Ac(b2-6)GalNAc
Procedure, shortened: as §1

[16] = target: Neu5Ac9Ac(a2-3)Gal(b1-3)GlcNAc
Procedure, shortened: as §1

[17] = target: Neu5Ac9Ac(a2-3)Gal(b1-4)GlcNAc
Procedure, shortened: as §1

[18] = target: Neu5Ac9Ac(a2-6)Gal(b1-4)GlcNAc
Procedure, shortened: as §1

[19] = target: Neu5Gc(a2-3)Gal(b1-3)GlcNAc
Procedure, shortened: as §1

[20] = target: Neu5Gc(a2-3)Gal(b1-3)[Fuc(a1-4)]GlcNAc
Procedure, shortened: as §1

[21] = target: Neu5Gc(a2-3)Gal(b1-4)Glc
Procedure, shortened: as §1

[22] = target: Neu5Gc(a2-3)Gal(b1-4)GlcNAc
Procedure, shortened: as §1

[23] = target: Neu5Gc(a2-3)Gal(b1-4)GlcNAc(b1-3)Gal(b1-4)GlcNAc(b1-2)Man(a1-3)[Neu5Gc(a2-3)Gal(b1-4)GlcNAc(b1-3)Gal(b1-4)GlcNAc(b1-2)Man(a1-6)]Man(b1-4)GlcNAc(b1-4)GlcNAc
Procedure, shortened: as §1

[24] = target: Neu5Gc(a2-3)Gal(b1-4)[Fuc(a1-3)]GlcNAc
Procedure, shortened: as §1

[25] = target: Neu5Gc(a2-6)Gal(b1-4)GlcNAc
Procedure, shortened: as §1

[26] = target: Neu5Gc(a2-6)GalNAc
Procedure, shortened: as §1

[27] = target: Neu5Gc(a2-8)Neu5Ac(a2-3)Gal(b1-4)GlcNAc
Procedure, shortened: as §1

[28] = target: Neu5Gc(a2-8)Neu5Gc(a2-3)Gal(b1-4)GlcNAc
Procedure, shortened: as §1

[29] = target: Neu5Gc(a2-8)Neu5Gc(a2-3)Gal(b1-4)GlcNAc(b1-3)Gal(b1-4)GlcNAc
Procedure, shortened: as §1

[30] = target: Neu5Gc(a2-8)Neu5Gc(a2-6)Gal(b1-4)GlcNAc
Procedure, shortened: as §1

[31] = target: Neu5Gc(b2-6)Gal(b1-4)GlcNAc
Procedure, shortened: as §1

B1: Epa21 (Candida glabrata) (protein)
chain: MGSSHHHHHHSSGLVPRGSHMASTPNIESHPQGCSPVDTSGIKPGLKMDLYRFPITPPGTGCWSWDWLTVTPDFPRSGYWKWPKIAEVDGVVGPLHLDSGHPTCDPLTSVLPHGFNYLQSITTTNFTMVLHGYFVPKQSGKYTFEFKADDALLLNLGAGNAFSCCDYNNSQYNQGEYLAYAIWSKNNQTATLYLEKGIYYPIRVFYHNRCCGAYMDVVYYFNDSPIPNRDFSGLLFSIPDSDSCDANI
Q: Which “glycan array binding signal (z-score)” value [1] does the source give for B1 here?
A: 0.145

Q: What about the “glycan array binding signal (z-score)” value [2] of the same binder?
A: -0.055

Q: And the “glycan array binding signal (z-score)” value [3]?
A: 0.074

Q: What about the “glycan array binding signal (z-score)” value [4] of the same binder?
A: -0.694

Q: What about the “glycan array binding signal (z-score)” value [5] of the same binder?
A: -0.544

Q: And the “glycan array binding signal (z-score)” value [6]?
A: -0.557

Q: What about the “glycan array binding signal (z-score)” value [7] of the same binder?
A: -0.329

Q: And the “glycan array binding signal (z-score)” value [8]?
A: -0.051

Q: What about the “glycan array binding signal (z-score)” value [9] of the same binder?
A: 0.307

Q: What about the “glycan array binding signal (z-score)” value [10] of the same binder?
A: 0.878

Q: And the “glycan array binding signal (z-score)” value [11]?
A: 0.189

Q: And the “glycan array binding signal (z-score)” value [12]?
A: -0.229

Q: And the “glycan array binding signal (z-score)” value [13]?
A: -0.679

Q: And the “glycan array binding signal (z-score)” value [14]?
A: -0.57

Q: And the “glycan array binding signal (z-score)” value [15]?
A: -0.743

Q: And the “glycan array binding signal (z-score)” value [16]?
A: -0.318

Q: And the “glycan array binding signal (z-score)” value [17]?
A: -0.077

Q: And the “glycan array binding signal (z-score)” value [18]?
A: -0.473

Q: What about the “glycan array binding signal (z-score)” value [19] of the same binder?
A: -0.547

Q: And the “glycan array binding signal (z-score)” value [20]?
A: -0.074

Q: What about the “glycan array binding signal (z-score)” value [21] of the same binder?
A: 0.155

Q: And the “glycan array binding signal (z-score)” value [22]?
A: -0.587

Q: And the “glycan array binding signal (z-score)” value [23]?
A: -0.199

Q: And the “glycan array binding signal (z-score)” value [24]?
A: -0.108

Q: What about the “glycan array binding signal (z-score)” value [25] of the same binder?
A: -0.078

Q: What about the “glycan array binding signal (z-score)” value [26] of the same binder?
A: -0.313

Q: And the “glycan array binding signal (z-score)” value [27]?
A: -1.74

Q: And the “glycan array binding signal (z-score)” value [28]?
A: -0.529

Q: What about the “glycan array binding signal (z-score)” value [29] of the same binder?
A: -0.8

Q: And the “glycan array binding signal (z-score)” value [30]?
A: -0.156

Q: What about the “glycan array binding signal (z-score)” value [31] of the same binder?
A: -0.009
